These are yes or no findings as the source states them, for the method shown. In cells and extracts the contact can be indirect. Some results given as binding are weak or reduced against the parent protein; the word gives no strength.

Amino acid sequences for entries named in this document (tags omitted).
UniProt Q8TEK3: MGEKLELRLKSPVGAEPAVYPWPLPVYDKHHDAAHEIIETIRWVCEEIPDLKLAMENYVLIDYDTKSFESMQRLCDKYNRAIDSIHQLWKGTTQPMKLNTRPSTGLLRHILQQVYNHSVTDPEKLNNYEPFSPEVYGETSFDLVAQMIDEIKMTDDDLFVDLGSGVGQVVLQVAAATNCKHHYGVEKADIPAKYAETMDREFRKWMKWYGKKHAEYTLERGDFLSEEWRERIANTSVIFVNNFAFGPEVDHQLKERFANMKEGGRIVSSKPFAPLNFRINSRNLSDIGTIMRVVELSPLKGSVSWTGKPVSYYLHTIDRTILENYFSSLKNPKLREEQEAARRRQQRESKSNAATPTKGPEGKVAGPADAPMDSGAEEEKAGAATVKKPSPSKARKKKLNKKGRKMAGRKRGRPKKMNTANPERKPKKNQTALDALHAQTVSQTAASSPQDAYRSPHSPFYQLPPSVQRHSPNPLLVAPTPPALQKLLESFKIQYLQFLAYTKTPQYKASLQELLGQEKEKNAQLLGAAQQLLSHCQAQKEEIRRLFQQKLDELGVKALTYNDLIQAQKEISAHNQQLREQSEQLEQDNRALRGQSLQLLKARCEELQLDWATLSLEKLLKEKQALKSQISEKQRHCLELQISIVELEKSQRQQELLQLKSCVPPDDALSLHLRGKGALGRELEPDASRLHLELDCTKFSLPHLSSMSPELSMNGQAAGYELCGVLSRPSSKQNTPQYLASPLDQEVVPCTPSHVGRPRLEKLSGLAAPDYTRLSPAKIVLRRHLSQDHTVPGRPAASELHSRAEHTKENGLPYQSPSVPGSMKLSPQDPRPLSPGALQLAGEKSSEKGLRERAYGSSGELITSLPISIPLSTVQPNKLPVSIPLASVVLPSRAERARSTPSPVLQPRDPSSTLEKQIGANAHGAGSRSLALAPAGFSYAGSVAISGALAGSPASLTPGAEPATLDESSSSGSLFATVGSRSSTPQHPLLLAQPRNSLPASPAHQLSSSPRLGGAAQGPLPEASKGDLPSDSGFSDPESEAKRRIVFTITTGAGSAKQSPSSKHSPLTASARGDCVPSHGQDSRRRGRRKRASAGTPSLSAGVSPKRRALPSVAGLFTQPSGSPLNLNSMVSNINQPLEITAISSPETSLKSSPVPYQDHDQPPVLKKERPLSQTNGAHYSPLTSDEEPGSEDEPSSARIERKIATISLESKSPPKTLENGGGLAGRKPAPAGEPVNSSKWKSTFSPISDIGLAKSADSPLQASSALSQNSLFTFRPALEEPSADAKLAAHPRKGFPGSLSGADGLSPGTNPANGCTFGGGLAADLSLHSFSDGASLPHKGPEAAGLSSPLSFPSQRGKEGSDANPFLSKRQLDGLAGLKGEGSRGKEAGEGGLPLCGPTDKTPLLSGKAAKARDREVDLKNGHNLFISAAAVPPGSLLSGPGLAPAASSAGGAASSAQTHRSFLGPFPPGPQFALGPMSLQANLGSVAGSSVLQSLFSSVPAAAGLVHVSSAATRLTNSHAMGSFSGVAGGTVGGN

This passage reports binding results from PMC8254283.

In this test the target is HA-tagged DOT1L (UniProt Q8TEK3). As to the kind of experiment: co-IP; HEK-293T transfected with DOT1L-HA and AF10 vectors, 48 h; Pierce IP-Lysis Buffer; IgG or HA antibodies 16 h at 4 °C, DynaBead Protein A; immunoblot with AF10 antibody. In general terms: Immunoblotting shows a protein as a band on a membrane.

B1: Wild-type AF10, expressed from cDNA (protein, UniProt P55197 1-1068)
chain: MVSSDRPVSLEDEVSHSMKEMIGGCCVCSDERGWAENPLVYCDGHGCSVAVHQACYGIVQVPTGPWFCRKCESQERAARVRCELCPHKDGALKRTDNGGWAHVVCALYIPEVQFANVSTMEPIVLQSVPHDRYNKTCYICDEQGRESKAATGACMTCNKHGCRQAFHVTCAQFAGLLCEEEGNGADNVQYCGYCKYHFSKLKKSKRGSNRSYDQSLSDSSSHSQDKHHEKEKKKYKEKDKHKQKHKKQPEPSPALVPSLTVTTEKTYTSTSNNSISGSLKRLEDTTARFTNANFQEVSAHTSSGKDVSETRGSEGKGKKSSAHSSGQRGRKPGGGRNPGTTVSAASPFPQGSFSGTPGSVKSSSGSSVQSPQDFLSFTDSDLRNDSYSHSQQSSATKDVHKGESGSQEGGVNSFSTLIGLPSTSAVTSQPKSFENSPGDLGNSSLPTAGYKRAQTSGIEEETVKEKKRKGNKQSKHGPGRPKGNKNQENVSHLSVSSASPTSSVASAAGSITSSSLQKSPTLLRNGSLQSLSVGSSPVGSEISMQYRHDGACPTTTFSELLNAIHNGIYNSNDVAVSFPNVVSGSGSSTPVSSSHLPQQSSGHLQQVGALSPSAVSSAAPAVATTQANTLSGSSLSQAPSHMYGNRSNSSMAALIAQSENNQTDQDLGDNSRNLVGRGSSPRGSLSPRSPVSSLQIRYDQPGNSSLENLPPVAASIEQLLERQWSEGQQFLLEQGTPSDILGMLKSLHQLQVENRRLEEQIKNLTAKKERLQLLNAQLSVPFPTITANPSPSHQIHTFSAQTAPTTDSLNSSKSPHIGNSFLPDNSLPVLNQDLTSSGQSTSSSSALSTPPPAGQSPAQQGSGVSGVQQVNGVTVGALASGMQPVTSTIPAVSAVGGIIGALPGNQLAINGIVGALNGVMQTPVTMSQNPTPLTHTTVPPNATHPMPATLTNSASGLGLLSDQQRQILIHQQQFQQLLNSQQLTPEQHQAFLYQLMQHHHQQHHQPELQQLQIPGPTQIPINNLLAGTQAPPLHTATTNPFLTIHGDNASQKVARLSDKTGPVAQEKS
For the molecule B1, the binding entry is “binds”.
